The record followed here is PMC3536697.

By UniProt entry, the sequences of proteins in these tests, tags left out. Where a name states a change or a piece, a line headed by the entry shows the natural chain unless it says otherwise.
UniProt Q5AB98: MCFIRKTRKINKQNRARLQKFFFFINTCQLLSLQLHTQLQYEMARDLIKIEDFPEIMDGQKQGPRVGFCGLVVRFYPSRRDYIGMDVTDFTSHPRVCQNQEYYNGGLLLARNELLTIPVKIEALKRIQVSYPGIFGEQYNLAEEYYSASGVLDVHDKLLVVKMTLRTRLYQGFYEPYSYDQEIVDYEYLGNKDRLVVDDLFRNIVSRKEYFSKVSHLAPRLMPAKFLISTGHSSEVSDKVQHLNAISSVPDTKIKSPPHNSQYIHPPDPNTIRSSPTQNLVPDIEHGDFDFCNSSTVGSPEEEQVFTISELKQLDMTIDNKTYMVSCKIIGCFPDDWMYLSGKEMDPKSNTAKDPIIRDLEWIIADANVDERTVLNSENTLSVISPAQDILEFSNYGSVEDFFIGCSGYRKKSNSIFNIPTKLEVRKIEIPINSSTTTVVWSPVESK
UniProt A0A1D8PI83: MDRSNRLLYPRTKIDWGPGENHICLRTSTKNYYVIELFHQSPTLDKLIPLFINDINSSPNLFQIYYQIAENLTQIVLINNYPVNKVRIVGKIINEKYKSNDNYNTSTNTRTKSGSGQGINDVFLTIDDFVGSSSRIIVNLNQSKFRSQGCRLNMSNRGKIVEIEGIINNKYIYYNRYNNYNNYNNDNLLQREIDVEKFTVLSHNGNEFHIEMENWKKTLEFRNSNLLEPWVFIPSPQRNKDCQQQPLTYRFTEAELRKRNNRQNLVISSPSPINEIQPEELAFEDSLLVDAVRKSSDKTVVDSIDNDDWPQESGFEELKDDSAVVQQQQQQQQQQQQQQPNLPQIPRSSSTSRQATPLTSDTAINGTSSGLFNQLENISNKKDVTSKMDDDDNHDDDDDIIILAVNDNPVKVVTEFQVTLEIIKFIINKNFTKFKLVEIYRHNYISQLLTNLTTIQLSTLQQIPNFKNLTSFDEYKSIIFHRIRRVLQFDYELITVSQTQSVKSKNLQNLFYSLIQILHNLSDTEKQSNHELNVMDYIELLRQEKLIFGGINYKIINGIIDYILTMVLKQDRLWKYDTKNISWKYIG

No constants are given. Whether binding was seen depends on the method and setting. Binding seen in cells or lysates may run through a third protein. Binding calls can cover weak binding; strength is not graded here.

The target in this test is GST-CaCdc13-FG fusion protein (Candida albicans Cdc13) (Candida albicans) (UniProt Q5AB98). Briefly: co-IP; extracts of E. coli expressing HIS6-SUMO-CaStn1 (wild type or K98E/K170E) alone or with GST-CaCdc13-FG, M2 affinity purification; Coomassie and Western (anti-FLAG, anti-HIS6).

Consider “HIS6-SUMO-CaStn1 fusion protein (Candida albicans Stn1), wild type (from UniProt A0A1D8PI83 1-587)”, for which the binding result is recorded as “binds”.
